Structures are written as SMILES. Out of some 1,200 compounds screened, about 20 (2%) were called active. Not shown: some 23% with an inconclusive outcome. The call rests on the fitted dose curve; in most records, active means well fitted inhibition curve with a large enough effect; inconclusive means small, poorly fitted or top-dose-only effect; inactive means no such curve, though single readings can be large or run the other way. The list shows a part of the results.

Sequences of proteins named here, by UniProt entry; tags and fusion partners are left off. A change or cut given only in a name is not applied to a line headed by its entry.
UniProt P11308: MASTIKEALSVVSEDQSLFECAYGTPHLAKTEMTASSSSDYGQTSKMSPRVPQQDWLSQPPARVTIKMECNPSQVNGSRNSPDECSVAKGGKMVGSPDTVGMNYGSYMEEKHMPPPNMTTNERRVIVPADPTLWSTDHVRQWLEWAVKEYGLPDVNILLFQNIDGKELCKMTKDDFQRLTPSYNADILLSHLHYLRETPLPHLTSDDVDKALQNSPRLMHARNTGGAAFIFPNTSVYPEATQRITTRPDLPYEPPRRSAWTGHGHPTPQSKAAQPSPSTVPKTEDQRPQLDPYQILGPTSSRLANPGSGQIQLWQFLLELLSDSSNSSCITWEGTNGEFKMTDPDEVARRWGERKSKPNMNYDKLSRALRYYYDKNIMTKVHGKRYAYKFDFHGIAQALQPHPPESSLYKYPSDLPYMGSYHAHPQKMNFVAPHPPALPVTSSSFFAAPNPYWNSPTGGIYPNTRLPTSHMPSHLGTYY

For this assay, the target named is Transcriptional regulator ERG (Homo sapiens) (UniProt P11308). The experiment in a line: qHTS for Small Molecule Inhibitors of the ERG Ets/DNA interaction: HTRF assay against cherry picks. As to conditions: His-ERG Ets domain with biotin-DNA; series mostly up to 154 µM; activity change, negative = inhibition: at the top concentration. Summed up: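 Compounds were incubated 10 min at RT with ERG Ets domain and biotinylated DNA (each added as 200 nM solution) in pH 7.5 Tris/KCl/EDTA/DTT buffer. Binding was read as FRET (ex 320, em 615 and 665 nm) between anti-His donor and streptavidin acceptor.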
Take `COC(=O)C/C(C)=N/Nc1ccc(S(=O)(=O)N2CCCC2)cc1[N+](=O)[O-]`: the “activity change, negative = inhibition” value is inactive: -58.8%.
Under `CCCCN(C(=O)Cc1ccc(S(=O)(=O)N2CCOCC2)s1)c1c(N)n(CCCC)c(=O)[nH]c1=O` stands inactive: 1.54%; under `Cc1cccc(NC(=O)c2ccccc2NC(=O)c2ccco2)c1`, inactive: -1.8%; under `Cc1nc2nc[nH]n2c(=O)c1NS(=O)(=O)c1ccc(F)cc1`, inactive: -4.19%.
Under `CCC(C)NCCOc1ccc(C)cc1[N+](=O)[O-]` (stereo unspecified) stands inactive: -18.4%; under `Cc1cccc(-c2cnn(-c3cccc([N+](=O)[O-])c3)c2N)c1`, inactive: -76%.
As for `COc1ccc(CC(=O)Nc2ccc(-c3nnc(-c4ccccc4)o3)cc2)cc1`, the “activity change, negative = inhibition” value is inactive: -29.6%.
To `COc1ccc(NC(=O)C2C3CCC(O3)C2C(=O)O)c(C)c1` (stereo unspecified) belongs inactive: -4.24%; to `CC1CCCC(NC(=O)COC(=O)/C=C/c2ccco2)C1C` (stereo unspecified), inactive: -18%; to `C=CCn1c(=O)c2ccccc2n2c(SCc3nc(N)nc(Nc4ccccc4C)n3)nnc12`, inactive: -22.2%.
To `CC(=O)Nc1ccc(SCC(=O)N(C)C2CCS(=O)(=O)C2)cc1` (stereo unspecified) belongs inactive: -6.63%; to `CCSc1nc2c(c(=O)[nH]c(=O)n2C)n1CC(O)COc1ccccc1` (stereo unspecified), inactive: 9.5%.
To `Cc1ccc(-c2[nH]c(-c3ccc(C(=O)O)cc3)nc2-c2ccccc2)cc1` belongs inactive: -27.9%; to `Cc1ccc([N+](=O)[O-])c2c1C(N1CC(C)OC(C)C1)C(C)(C)O2` (stereo unspecified), inactive: -29.7%; to `C[C@H](CO)N1C[C@H](C)[C@@H](CN(C)CC2CC2)Oc2c(NC(=O)C3CC3)cccc2C1=O`, inactive: -4.08%.
As for `O=C1N/C(=C/c2cccs2)C(=O)N1Cc1ccc(F)cc1`, the “activity change, negative = inhibition” value is inactive: -21.1%.
To `CCN1CCN(CCCN(Cc2cccs2)C(=S)Nc2ccccc2C)CC1` belongs inactive: -37.5%; to `Oc1ccc(NCc2ccccc2OCc2ccccc2Cl)cc1`, inactive: -1.96%; to `COc1ccc(Cl)cc1NC(=O)COC(C)=O`, inactive: -20.4%.
Under `COC(=O)[C@H](Cc1ccccc1)NC(=O)Nc1ccc(OC)cc1` stands inactive: -0.796%; under `O=S(=O)(c1ccccc1)c1cnc(-c2cccnc2)nc1-c1ccccc1`, inactive: -15.6%; under `O=c1ccc2cc(S(=O)(=O)Nc3ccccc3F)ccc2o1`, inactive: -11.3%.
Under `CC1COc2ccccc2N1S(=O)(=O)c1ccc(Cl)cc1` (stereo unspecified) stands inactive: -26.5%.
With `O=C(NCC(=O)N(c1cccc(F)c1)C(C(=O)NC1CCCC1)c1cccnc1)c1cccs1` (stereo unspecified), the “activity change, negative = inhibition” value is inactive: -0.955%.
To `COc1cc(C(=O)Cc2nc3ccccc3n2C)cc(OC)c1OC` belongs inactive: -18.5%.
Turning to `COc1cc(CNCc2ccncc2)cc(OC)c1OC`, the “activity change, negative = inhibition” value was inactive: -28.3%.
To `O=C1/C(=C/c2cccs2)Sc2ccccc21` belongs inactive: -26.2%.
Under `CCOc1ccc(NC(=O)Nc2cccn(Cc3ccccc3)c2=O)cc1` stands inactive: -13.9%; under `COC(=O)c1ccc(NC(=O)c2cccc(C)c2[N+](=O)[O-])cc1`, inactive: -10.2%.
Under `CCC(=O)Nc1c(C)ccc2nsnc12` stands inactive: -23.4%; under `Cn1c(SCC(=O)N2CCN(C(=O)c3ccco3)CC2)nnc1-c1ccc(NS(C)(=O)=O)cc1`, inactive: -23%.
With `CCN1C(=O)CSc2ccc(C(=O)NC3CCCCC3)cc21`, the “activity change, negative = inhibition” value is inactive: 0%.
To `O=C1[C@H]2[C@@H](c3ccc(F)cc3)N3C(=O)N(c4cccc(F)c4)C(=O)[C@@]3(Cc3ccccc3)[C@H]2C(=O)N1C1CCCCC1` belongs inactive: -28.6%; to `CCCCN(C(=S)Nc1cccc(SC)c1)C1CCN(C(C)=O)CC1`, inactive: -9.07%.
To `CCN(CC(=O)N1CCCCCC1)S(=O)(=O)c1ccc(Cl)cc1` belongs inactive: -18.2%; to `COc1ccc(N(CC(=O)NCc2ccco2)S(=O)(=O)c2ccc(C)cc2)cc1`, inactive: -2.92%; to `CCN(CC)CCN1C(=O)C2C(C(=O)Nc3cccc(SC)c3)C3C=CC2(O3)C1C(=O)NC1CCCC(C)C1C` (stereo unspecified), inactive: -9.76%.
Under `O=C(NCC1CCCCC1)c1cccc(-c2ccc(O)cc2)c1` stands inactive: -23.5%.
Regarding `CC(Oc1ccc(C(=O)c2ccc(F)cc2)cc1)C(=O)N1CCOCC1` (stereo unspecified), the “activity change, negative = inhibition” value was inactive: -25.3%.
To `CCc1nnc2c(N3CCN(c4cccc(C(F)(F)F)c4)CC3)nc3ccccc3n12` belongs inactive: -8.91%; to `O=C(N1CCc2[nH]c3ccccc3c2C1)C(F)(F)F`, inactive: -14%.
Under `CN(C)S(=O)(=O)c1ccc(N2CCCC2)c(C(=O)N2CCC(C(N)=O)CC2)c1` stands inactive: -24.4%; under `CN(CC(=O)OCC(=O)NCC(F)(F)F)S(=O)(=O)c1ccc(Cl)cc1`, inactive: 0.849%; under `CCOC(=O)CC1COCCN1Cc1cn[nH]c1-c1cc(OC)c(OC)c(OC)c1` (stereo unspecified), inactive: -1.17%.
Under `CS(=O)(=O)Nc1ccc(N2CCN(c3ccc(C(F)(F)F)cn3)CC2)nc1` stands inactive: -29.3%.
On to `CC(C)Cc1ccc(C(C)C(=O)O)cc1` (stereo unspecified), for which the “activity change, negative = inhibition” value is inactive: -10.7%.
To `CC1CCN(S(=O)(=O)c2ccc(Cl)s2)CC1` belongs inactive: -23%.
As for `O=C(C1CC(=O)N(c2ccc(F)cc2)C1)N1CCC(c2nc3ccccc3[nH]2)CC1` (stereo unspecified), the “activity change, negative = inhibition” value is inactive: -28.4%.
To `CCCCNC(=O)CCC(=O)NNc1nc2ccccc2c2nc(C)nn12` belongs inactive: -38.5%; to `Cc1cc(C(=O)COC(=O)C23CC4CC(CC(O)(C4)C2)C3)c(C)n1C`, inactive: -28.2%; to `CCOC(=O)c1oc2ccc(S(=O)(=O)n3nc(-c4ccc(OC)cc4)cc3N)cc2c1C`, inactive: -16.7%.

The record behind these values is PubChem BioAssay AID651804 (National Center for Advancing Translational Sciences (NCATS), 2012).
